Read-outs that look alike come from different tables or passages of the source.

Experiment [1] concerns HepG2 cells. The experiment is described as follows: cells. The conditions noted are these: Homo sapiens, HepG2, 4 h, read-out: NECROSIS LDH release EC50.
In experiment [2] the test system is HepG2 cells. Kind of experiment: cells. The conditions noted are these: Homo sapiens, HepG2, 4 h, read-out: APOPTOSIS Caspase-3 activation EC50.

Turning to `CC/C(=C(\c1ccccc1)c1ccc(OCCN(C)C)cc1)c1ccccc1` [Tamoxifen], the EC50 with HepG2 cells [1] is 35 µM; in the experiment with HepG2 cells [2], 4 µM.

The record behind these values is patent US8114862B2, “TGR5 modulators and methods of use thereof” (Intercept Pharmaceuticals, Inc., priority 2008, dated 2012).
